Taken from: PubChem BioAssay AID504791 (Drosophila RNAi Screening Center, 2011)

Aim: 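Genes of the fly required for silencing by miRNA, siRNA or endo-siRNA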 (primary screen)
System: Drosophila S2-derived reporter cells
Reagents: long dsRNA against Drosophila genes, about 150-250 ng dsRNA per well (siRNA assay); about 80-120 ng (miRNA assay)
Time to read-out: about 5 days (siRNA assay); about 4 days (miRNA assay)
Conditions: copper sulfate induction of reporters: 25 µM (siRNA assay); 200 mM stated (miRNA assay), 1-2 days before reading
Measured: 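Per-well ratio of Renilla over firefly light, expressed relative to that plate's average ratio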
Rule for the call: 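First-pass picks had plate-scaled ratios over 1.5 for the siRNA assay, over 1.6 for the miRNA assay, or under 0.6; two distinct dsRNAs had to score alike on retest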
The deposit covers about 23,000 reagents; shown is an unselected part of those with a known target gene and a result. Over the whole deposit, 199 (0.86%) are marked active. 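Plate-scaled ratios behind the calls are not deposited; printed light signals are raw; many rows marked increased or decreased are still called inactive.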 Names joined by + are all predicted targets of the reagent. The record does not give: the direction of the score.

Pi4KIIIalpha (GeneID 31247) [DRSC18655] gave stable assay Renilla, run 1 (luminescence) = 4823; stable assay firefly, run 1 (luminescence) = 2.94e5; inactive.
With knock-down of by (GeneID 41144) [DRSC16482], the record shows stable assay Renilla, run 1 (luminescence) = 6479; stable assay firefly, run 1 (luminescence) = 4.01e5; inactive.
With knock-down of CG31883 (GeneID 326169) [DRSC02561] the results were miRNA reporter change reporter ratio raised past the hit cutoff; stable assay Renilla, run 1 (luminescence) = 6438; stable assay firefly, run 1 (luminescence) = 5.00e5; inactive.
For CG8176 (GeneID 261329) [DRSC16394], the values are stable assay Renilla, run 1 (luminescence) = 5923; stable assay firefly, run 1 (luminescence) = 3.36e5; inactive.
With knock-down of CG4734 (GeneID 36477) [DRSC06885] the results were stable assay Renilla, run 1 (luminescence) = 6235; stable assay firefly, run 1 (luminescence) = 3.71e5; inactive.
After knock-down of CG4734 (GeneID 36477) [DRSC22072], the screen gave stable assay Renilla, run 1 (luminescence) = 8866; stable assay firefly, run 1 (luminescence) = 6.09e5; inactive.
After knock-down of CG14325 (GeneID 42123) [DRSC14804], the screen gave stable assay Renilla, run 1 (luminescence) = 7917; stable assay firefly, run 1 (luminescence) = 4.15e5; inactive.
CG34155 (GeneID 4379867) [DRSC13991] gave stable assay Renilla, run 1 (luminescence) = 7981; stable assay firefly, run 1 (luminescence) = 3.48e5; inactive.
CG32988 (GeneID 318274) [DRSC02692] scored stable assay Renilla, run 1 (luminescence) = 7195; stable assay firefly, run 1 (luminescence) = 4.74e5; inactive.
Depletion of CG13074 (GeneID 39760) [DRSC09957] came out at: stable assay Renilla, run 1 (luminescence) = 7079; stable assay firefly, run 1 (luminescence) = 2.91e5; inactive.
Knock-down of Cyp6t2Psi (GeneID 3772355) [DRSC01840] gave: stable assay Renilla, run 1 (luminescence) = 6747; stable assay firefly, run 1 (luminescence) = 6.09e5; inactive.
After knock-down of ZC3H3 (GeneID 38968) [DRSC10696] the results were stable assay Renilla, run 1 (luminescence) = 4896; stable assay firefly, run 1 (luminescence) = 3.05e5; inactive.
Depletion of Nsf2 (GeneID 41694) [DRSC22104] gave: stable assay Renilla, run 1 (luminescence) = 8813; stable assay firefly, run 1 (luminescence) = 5.56e5; inactive.
Knock-down of CG13640 (GeneID 42967) [DRSC14639] resulted in: stable assay Renilla, run 1 (luminescence) = 7322; stable assay firefly, run 1 (luminescence) = 4.44e5; inactive.
After knock-down of Incenp (GeneID 35649) [DRSC06116], the screen gave stable assay Renilla, run 1 (luminescence) = 13091; stable assay firefly, run 1 (luminescence) = 1.13e6; inactive.
For Incenp (GeneID 35649) [DRSC21950], the entry reads stable assay Renilla, run 1 (luminescence) = 9721; stable assay firefly, run 1 (luminescence) = 4.94e5; inactive.

Already shown: 4 of the entries above.
CG32988 (GeneID 318274) [DRSC02692] | stable assay Renilla, run 1 (luminescence): 7195; stable assay firefly, run 1 (luminescence): 4.74e5; outcome: inactive
CG13074 (GeneID 39760) [DRSC09957] | stable assay Renilla, run 1 (luminescence): 7079; stable assay firefly, run 1 (luminescence): 2.91e5; outcome: inactive
Cyp6t2Psi (GeneID 3772355) [DRSC01840] | stable assay Renilla, run 1 (luminescence): 6747; stable assay firefly, run 1 (luminescence): 6.09e5; outcome: inactive
ZC3H3 (GeneID 38968) [DRSC10696] | stable assay Renilla, run 1 (luminescence): 4896; stable assay firefly, run 1 (luminescence): 3.05e5; outcome: inactive

Next results:
jeb (GeneID 36295) [DRSC06305] showed stable assay Renilla, run 1 (luminescence) = 6476; stable assay firefly, run 1 (luminescence) = 4.06e5; inactive.
After knock-down of jeb (GeneID 36295) [DRSC06307], the screen gave stable siRNA reporter change reporter ratio lowered past the hit cutoff; stable assay Renilla, run 1 (luminescence) = 6331; stable assay firefly, run 1 (luminescence) = 6.11e5; inactive.
For TwdlU (GeneID 5740279) [DRSC12224], the values are stable assay Renilla, run 1 (luminescence) = 8695; stable assay firefly, run 1 (luminescence) = 6.01e5; inactive.
Against cactin (GeneID 33043) [DRSC20576], the entry reads stable assay Renilla, run 1 (luminescence) = 5220; stable assay firefly, run 1 (luminescence) = 4.19e5; inactive.
With knock-down of MstProx + Mst84Da [DRSC12597] the results were stable assay Renilla, run 1 (luminescence) = 6690; stable assay firefly, run 1 (luminescence) = 6.21e5; inactive.
Against Cpr60D (GeneID 246492) [DRSC04492], the entry reads stable assay Renilla, run 1 (luminescence) = 6787; stable assay firefly, run 1 (luminescence) = 4.16e5; inactive.
Knock-down of Cpr57A + Obp57d [DRSC06708] gave: stable assay Renilla, run 1 (luminescence) = 10935; stable assay firefly, run 1 (luminescence) = 4.11e5; inactive.
After knock-down of Cpr57A + Obp57d [DRSC22719], the record shows stable assay Renilla, run 1 (luminescence) = 3983; stable assay firefly, run 1 (luminescence) = 3.80e5; inactive.
7B2 (GeneID 40644) [DRSC11991] showed stable siRNA reporter change reporter ratio raised past the hit cutoff; stable assay Renilla, run 1 (luminescence) = 9079; stable assay firefly, run 1 (luminescence) = 2.88e5; inactive.
PolrMT (GeneID 33285) [DRSC00660] scored stable assay Renilla, run 1 (luminescence) = 2.62e5; stable assay firefly, run 1 (luminescence) = 1.23e5; inactive.
With knock-down of CG10477 (GeneID 38679) [DRSC09732], the record shows stable assay Renilla, run 1 (luminescence) = 7826; stable assay firefly, run 1 (luminescence) = 5.19e5; inactive.
For CG15120 (GeneID 37248) [DRSC06542] the deposit lists stable assay Renilla, run 1 (luminescence) = 6495; stable assay firefly, run 1 (luminescence) = 3.15e5; inactive.
Knock-down of FASN3 (GeneID 3355111) [DRSC20882] gave: stable assay Renilla, run 1 (luminescence) = 5987; stable assay firefly, run 1 (luminescence) = 4.20e5; inactive.
For CG13724 (GeneID 39927) [DRSC10053] the deposit lists stable assay Renilla, run 1 (luminescence) = 6706; stable assay firefly, run 1 (luminescence) = 4.32e5; inactive.
Knock-down of mam (GeneID 36555) [DRSC05468] came out at: stable assay Renilla, run 1 (luminescence) = 5218; stable assay firefly, run 1 (luminescence) = 3.24e5; inactive.
Against mam (GeneID 36555) [DRSC07648], the entry reads stable assay Renilla, run 1 (luminescence) = 3844; stable assay firefly, run 1 (luminescence) = 1.49e5; inactive.
mam (GeneID 36555) [DRSC22971] gave stable assay Renilla, run 1 (luminescence) = 4999; stable assay firefly, run 1 (luminescence) = 4.76e5; inactive.
rgr (GeneID 35843) [DRSC06487] gave stable assay Renilla, run 1 (luminescence) = 8489; stable assay firefly, run 1 (luminescence) = 4.08e5; inactive.
After knock-down of rgr (GeneID 35843) [DRSC07229] the results were stable assay Renilla, run 1 (luminescence) = 8598; stable assay firefly, run 1 (luminescence) = 4.48e5; inactive.
